Source: publication doi:10.1101/2020.04.03.023721
No constants are given. Whether binding was seen depends on the method and setting. In cells and extracts the contact can be indirect. Sequences can lack the tags named with a protein.

By UniProt entry, the sequences of proteins in these tests, tags left out.
UniProt P49023: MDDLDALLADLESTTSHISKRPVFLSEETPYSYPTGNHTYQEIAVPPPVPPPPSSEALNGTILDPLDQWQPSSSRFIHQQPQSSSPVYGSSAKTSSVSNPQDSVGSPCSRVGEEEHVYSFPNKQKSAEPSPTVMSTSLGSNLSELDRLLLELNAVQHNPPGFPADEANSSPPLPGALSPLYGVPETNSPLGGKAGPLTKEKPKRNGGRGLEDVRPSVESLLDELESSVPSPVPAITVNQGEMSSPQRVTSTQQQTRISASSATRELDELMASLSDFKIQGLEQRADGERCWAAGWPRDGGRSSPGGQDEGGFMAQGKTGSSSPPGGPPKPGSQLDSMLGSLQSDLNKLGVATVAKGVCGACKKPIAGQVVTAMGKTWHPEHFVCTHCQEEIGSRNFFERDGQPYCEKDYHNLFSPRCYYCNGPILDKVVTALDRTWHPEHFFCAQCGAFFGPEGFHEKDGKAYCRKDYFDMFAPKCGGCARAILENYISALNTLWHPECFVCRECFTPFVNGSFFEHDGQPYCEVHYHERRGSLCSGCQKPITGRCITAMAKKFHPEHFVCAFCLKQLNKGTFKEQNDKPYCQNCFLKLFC

Columns and labels:
Test in all cases: co-IP
Flag-P2X7(32-595) = biological target: T1, Flag-P2X7(32-595) (UniProt Q99572)
T1 sequence: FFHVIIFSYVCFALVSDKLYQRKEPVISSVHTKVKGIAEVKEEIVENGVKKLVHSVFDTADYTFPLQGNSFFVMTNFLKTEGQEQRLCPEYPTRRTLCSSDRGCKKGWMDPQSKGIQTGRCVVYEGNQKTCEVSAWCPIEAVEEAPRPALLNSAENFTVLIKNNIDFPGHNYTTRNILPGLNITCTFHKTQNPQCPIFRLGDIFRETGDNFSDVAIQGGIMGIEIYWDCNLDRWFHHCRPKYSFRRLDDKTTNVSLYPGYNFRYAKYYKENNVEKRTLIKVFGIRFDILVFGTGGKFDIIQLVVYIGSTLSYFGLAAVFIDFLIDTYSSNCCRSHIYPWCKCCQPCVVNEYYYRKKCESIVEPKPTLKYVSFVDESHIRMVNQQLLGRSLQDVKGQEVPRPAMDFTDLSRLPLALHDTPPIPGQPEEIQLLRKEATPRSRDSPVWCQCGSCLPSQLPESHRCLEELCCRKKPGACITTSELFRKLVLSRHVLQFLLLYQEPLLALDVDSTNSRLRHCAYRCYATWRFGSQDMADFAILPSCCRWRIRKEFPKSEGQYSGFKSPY

Flag-P2X7(31-595) = biological target: T2, Flag-P2X7(31-595) (UniProt Q99572)
T2 sequence: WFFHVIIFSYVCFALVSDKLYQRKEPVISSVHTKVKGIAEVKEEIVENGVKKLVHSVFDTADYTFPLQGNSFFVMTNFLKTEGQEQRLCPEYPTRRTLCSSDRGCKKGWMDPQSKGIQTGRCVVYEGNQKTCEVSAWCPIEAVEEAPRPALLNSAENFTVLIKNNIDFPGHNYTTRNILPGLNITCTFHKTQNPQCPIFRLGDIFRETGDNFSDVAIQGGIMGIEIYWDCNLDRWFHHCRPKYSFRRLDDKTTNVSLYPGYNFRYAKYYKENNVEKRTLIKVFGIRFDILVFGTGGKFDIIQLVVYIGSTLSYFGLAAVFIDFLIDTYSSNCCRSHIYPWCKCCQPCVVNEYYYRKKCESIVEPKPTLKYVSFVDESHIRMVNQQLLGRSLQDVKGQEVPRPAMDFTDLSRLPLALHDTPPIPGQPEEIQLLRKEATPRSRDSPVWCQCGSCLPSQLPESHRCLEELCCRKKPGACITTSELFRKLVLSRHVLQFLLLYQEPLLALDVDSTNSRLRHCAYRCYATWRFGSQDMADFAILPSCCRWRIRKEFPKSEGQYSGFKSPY

Flag-P2X7(35-595) = biological target: T3, Flag-P2X7(35-595) (UniProt Q99572)
T3 sequence: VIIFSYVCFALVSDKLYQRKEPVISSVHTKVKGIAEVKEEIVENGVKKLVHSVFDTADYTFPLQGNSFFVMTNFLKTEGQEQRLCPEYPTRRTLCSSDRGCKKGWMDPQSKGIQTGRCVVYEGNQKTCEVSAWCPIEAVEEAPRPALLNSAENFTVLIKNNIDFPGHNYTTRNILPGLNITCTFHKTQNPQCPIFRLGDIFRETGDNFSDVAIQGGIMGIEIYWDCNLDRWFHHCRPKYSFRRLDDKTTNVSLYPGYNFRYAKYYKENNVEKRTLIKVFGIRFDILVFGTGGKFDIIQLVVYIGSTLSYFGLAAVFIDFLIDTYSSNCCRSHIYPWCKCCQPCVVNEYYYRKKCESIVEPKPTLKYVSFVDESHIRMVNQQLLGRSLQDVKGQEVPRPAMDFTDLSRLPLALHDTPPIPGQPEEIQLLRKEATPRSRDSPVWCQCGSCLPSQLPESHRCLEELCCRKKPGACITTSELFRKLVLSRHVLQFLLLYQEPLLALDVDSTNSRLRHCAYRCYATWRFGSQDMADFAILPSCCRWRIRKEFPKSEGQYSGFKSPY

Measured: binding

HA-Paxillin (from UniProt P49023 1-591)
no binding: all assays above
